Source: US11612612B2, “Pharmaceutical compositions” (CIPLA LIMITED, priority 2016, dated 2023)

Experiment: in vitro
Settings: human, Caco-2
Experimental: Cells were treated with drugs as follows:
Stock preparations: 10 mM stocks of all the drugs were prepared in DMSO. The test concentrations were further prepared in HBSS buffer containing 10 mM MES hydrate pH 6.8 as per the plate plan. Also, HBSS buffer with 10 mM HEPES with pH 7.4 was prepared.
The sample were analyzed on LCMS-MS.

Papp A→B at 120 min, 50 μM: 32.8 nm/s
Structure (SMILES): CC(C)NCC(O)COc1ccc(CC(N)=O)cc1 (stereo not shown) [Atenolol]
